Where two headings read alike, the source gives them in different places.
Details: B6, B12

With `CSCC[C@H](N)C(=O)O` [methionine] as the compound, how does the “Body weight, ratio methionine-enriched / not enriched” value (diets with folate) read?
Its value is 0.9.

And the “Brain weight, ratio methionine-enriched / not enriched” value (diets with folate)?
Its value is 1.

What about the “Heart weight, ratio methionine-enriched / not enriched” value (diets with folate) of the same compound?
The value was 0.9.

What about the “Body weight, ratio methionine-enriched / not enriched” value (diets without folate) of the same compound?
The value was 0.9.

What about the “Brain weight, ratio methionine-enriched / not enriched” value (diets without folate) of the same compound?
The value was 1.

And the “Heart weight, ratio methionine-enriched / not enriched” value (diets without folate)?
The value was 0.8.

— US7794965B2, “Method of identifying modulators of PP2A methylase” (Signum Biosciences, Inc., priority 2002, dated 2010)
